± gives the uncertainty stated by the source. Many of these values have a large error.
Test: self-splicing fitness, log relative to wild type (ln ratio); higher = more splicing; Tetrahymena group I intron in knt gene, E. coli kanamycin selection, DiMSum; sequences stand for … in CUCUCU…GGAGGGAAAAGUUAUCAGGCAUGCACCUGGUAGCUAGUCUUUAAACCAAUAGAUUGCAUCGGUUUAAAAGGCAAGACCGUCAAAUUGCGGGAAAGGGGUCAACAGCCGUUCAGUACCAAGUCUCAGGGGAAACUUUGAGAUGGCCUUGCAAAGGGUAUGGUAAUAAGCUGACGGACAUGGUCCUAACCACGCAGCCAAGUCCUAAGUCAACAGAUCUUCUGUUGAUAUGGAUGCAGUUCACAGACUAAAUGUCGGUCGGGGAAGAUGUAUUCUUCUCAUAAGAUAUAGUCGGACCUCUCCUUAAUGGGAGCUAGCGGAUGAAGUGAUGCAACACUGGAGCCGCUGGGAACUAAUUUGUAUGCGAAAGUAUAUUGAUUAGUUUUGGAGUACUCGUGGUCG
In short: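 Fitness was computed with DiMSum as the error-weighted combination of replicate fold changes, kanamycin versus none, each normalised to wild type. The library randomised all eight intron nucleotides of the P1ex region, with the intron placed in the knt kanamycin-resistance gene on pET-22b(+) in E. coli BL21(DE3). Six replicate transformations were grown overnight at 37°C or 30°C on LB agar with or without 25 μg/mL kanamycin, plus 100 μg/mL carbenicillin, 50 μM IPTG and 0.2% rhamnose. Pooled colonies were amplicon-sequenced on an Illumina HiSeq 2500.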

In the case of CUCUAGCAAUAUUACGCGUU, the “self-splicing fitness (ln)” value (30 °C) is reported as -5.33 ± 0.58.

For AUGUAGCAAUAUUACGAGGC, the “self-splicing fitness (ln)” value (30 °C) was -5.29 ± 1.

With GGUUAGCAAUAUUACGCGCU the “self-splicing fitness (ln)” value (30 °C) was -2.36 ± 0.5 and the “self-splicing fitness (ln)” value (37 °C) was -0.947 ± 0.71.

With UCAUAGCAAUAUUACGGGGC the “self-splicing fitness (ln)” value (30 °C) was -4.21 ± 1.

With UCCCAGCAAUAUUACGGGGA the “self-splicing fitness (ln)” value (30 °C) was -3.53 ± 0.17 and the “self-splicing fitness (ln)” value (37 °C) was -2.43 ± 0.16.

In the case of CGGUAGCAAUAUUACGGGAU, the “self-splicing fitness (ln)” value (37 °C) is reported as -3.12 ± 0.74.

With UUAAAGCAAUAUUACGGGGU the “self-splicing fitness (ln)” value (30 °C) was -4.99 ± 0.51.

For CGUGAGCAAUAUUACGAAGC, the “self-splicing fitness (ln)” value (30 °C) was -3.23 ± 1 and the “self-splicing fitness (ln)” value (37 °C) was -2.03 ± 0.77.

In the case of CUUGAGCAAUAUUACGGUGA, the “self-splicing fitness (ln)” value (30 °C) is reported as -3.34 ± 0.27 and the “self-splicing fitness (ln)” value (37 °C) is reported as -2 ± 0.25.

In the case of CAGGAGCAAUAUUACGGAGA, the “self-splicing fitness (ln)” value (30 °C) is reported as -2.81 ± 0.28 and the “self-splicing fitness (ln)” value (37 °C) is reported as -2.34 ± 0.37.

With GCGUAGCAAUAUUACGGGCC the “self-splicing fitness (ln)” value (37 °C) was -2.91 ± 0.74.

With GGAAAGCAAUAUUACGUCGG the “self-splicing fitness (ln)” value (37 °C) was -2.61 ± 0.62.

For CUGGAGCAAUAUUACGCUGG, the “self-splicing fitness (ln)” value (30 °C) was -3.91 ± 0.52.

With GAUCAGCAAUAUUACGCUCC the “self-splicing fitness (ln)” value (30 °C) was -4.04 ± 1.1 and the “self-splicing fitness (ln)” value (37 °C) was -1.83 ± 0.82.

With AUCGAGCAAUAUUACGCCAA the “self-splicing fitness (ln)” value (30 °C) was -2.44 ± 1.1 and the “self-splicing fitness (ln)” value (37 °C) was -1.31 ± 0.52.

For GGGGAGCAAUAUUACGCCGG, the “self-splicing fitness (ln)” value (30 °C) was -3.72 ± 0.73 and the “self-splicing fitness (ln)” value (37 °C) was -0.928 ± 0.42.

In the case of AUAGAGCAAUAUUACGGACG, the “self-splicing fitness (ln)” value (30 °C) is reported as -2.69 ± 0.22 and the “self-splicing fitness (ln)” value (37 °C) is reported as -0.981 ± 0.19.

In the case of UAGCAGCAAUAUUACGCCGC, the “self-splicing fitness (ln)” value (30 °C) is reported as -2.36 ± 0.57 and the “self-splicing fitness (ln)” value (37 °C) is reported as -2.76 ± 1.1.

In the case of AUGGAGCAAUAUUACGAAAC, the “self-splicing fitness (ln)” value (37 °C) is reported as -2.06 ± 0.78.

With AACUAGCAAUAUUACGUGCA the “self-splicing fitness (ln)” value (30 °C) was -0.72 ± 0.054 and the “self-splicing fitness (ln)” value (37 °C) was -0.578 ± 0.065.

In the case of AGGGAGCAAUAUUACGAGGA, the “self-splicing fitness (ln)” value (37 °C) is reported as -2.88 ± 1.1.

For CUCAAGCAAUAUUACGCCAC, the “self-splicing fitness (ln)” value (30 °C) was -3.76 ± 1 and the “self-splicing fitness (ln)” value (37 °C) was -2.8 ± 0.53.

With UGGGAGCAAUAUUACGGAAU the “self-splicing fitness (ln)” value (30 °C) was -4.05 ± 0.52.

With CUUUAGCAAUAUUACGAAGA the “self-splicing fitness (ln)” value (37 °C) was -2.43 ± 0.34.

With GCGUAGCAAUAUUACGCGGA the “self-splicing fitness (ln)” value (37 °C) was -1.33 ± 0.87.

In the case of AGGGAGCAAUAUUACGUCAG, the “self-splicing fitness (ln)” value (30 °C) is reported as -4.08 ± 0.51.

In the case of GCAUAGCAAUAUUACGUUCC, the “self-splicing fitness (ln)” value (30 °C) is reported as -2.21 ± 1.1.

In the case of CAGGAGCAAUAUUACGGCAU, the “self-splicing fitness (ln)” value (37 °C) is reported as -2.23 ± 0.8.

From the supplement of paper PMC7877785
